From paper PMC10724427 come the findings set out here.

Chains of the proteins cited; added tags and fusions are not shown.
UniProt Q14814: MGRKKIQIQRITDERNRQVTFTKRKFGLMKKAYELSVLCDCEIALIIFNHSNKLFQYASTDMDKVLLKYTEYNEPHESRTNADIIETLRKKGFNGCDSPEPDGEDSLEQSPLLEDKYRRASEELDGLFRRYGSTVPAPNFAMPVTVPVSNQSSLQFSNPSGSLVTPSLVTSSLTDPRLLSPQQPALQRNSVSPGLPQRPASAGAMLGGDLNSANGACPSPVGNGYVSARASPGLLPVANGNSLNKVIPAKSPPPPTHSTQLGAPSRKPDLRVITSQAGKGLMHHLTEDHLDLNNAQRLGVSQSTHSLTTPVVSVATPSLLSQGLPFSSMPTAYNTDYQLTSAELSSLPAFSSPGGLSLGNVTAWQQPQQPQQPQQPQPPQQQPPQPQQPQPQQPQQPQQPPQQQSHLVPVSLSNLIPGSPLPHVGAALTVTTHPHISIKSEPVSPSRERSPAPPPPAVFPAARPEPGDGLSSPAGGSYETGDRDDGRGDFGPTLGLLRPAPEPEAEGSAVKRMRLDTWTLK
UniProt Q13418: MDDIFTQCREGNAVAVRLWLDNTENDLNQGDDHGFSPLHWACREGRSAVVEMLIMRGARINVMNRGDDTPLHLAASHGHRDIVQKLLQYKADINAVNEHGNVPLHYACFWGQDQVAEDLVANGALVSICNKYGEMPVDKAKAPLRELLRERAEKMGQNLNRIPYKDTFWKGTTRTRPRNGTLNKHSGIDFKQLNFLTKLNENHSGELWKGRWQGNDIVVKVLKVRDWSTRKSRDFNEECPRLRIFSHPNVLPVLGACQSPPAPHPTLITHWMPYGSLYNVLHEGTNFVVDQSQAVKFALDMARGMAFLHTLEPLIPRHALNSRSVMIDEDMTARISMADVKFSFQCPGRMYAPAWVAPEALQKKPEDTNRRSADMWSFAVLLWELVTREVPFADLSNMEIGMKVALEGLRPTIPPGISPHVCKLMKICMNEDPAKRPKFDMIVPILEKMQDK
UniProt Q00987: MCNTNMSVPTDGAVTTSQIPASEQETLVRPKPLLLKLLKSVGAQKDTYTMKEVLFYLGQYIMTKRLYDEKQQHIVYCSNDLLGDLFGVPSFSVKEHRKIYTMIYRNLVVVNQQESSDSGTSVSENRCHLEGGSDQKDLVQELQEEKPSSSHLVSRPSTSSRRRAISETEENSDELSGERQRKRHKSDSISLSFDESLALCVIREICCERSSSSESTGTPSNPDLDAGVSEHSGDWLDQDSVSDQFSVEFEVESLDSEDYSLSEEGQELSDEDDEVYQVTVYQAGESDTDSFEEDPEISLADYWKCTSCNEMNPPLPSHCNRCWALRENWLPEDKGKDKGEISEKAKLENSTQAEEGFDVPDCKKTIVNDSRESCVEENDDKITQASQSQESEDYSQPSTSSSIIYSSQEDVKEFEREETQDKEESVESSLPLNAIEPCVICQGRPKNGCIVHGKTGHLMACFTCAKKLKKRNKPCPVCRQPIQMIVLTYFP

No constants are given. Whether binding was seen depends on the method and setting. In cells and extracts the contact can be indirect. Some binding calls cover weakened binding; strength is not graded here.

The target in assay [1] is myocyte enhancer factor 2D (human (endogenous in Hep3B)) (UniProt Q14814). In words: co-IP; endogenous proteins in Hep3B lysates; cells untreated or treated with FN or NETs-DNA, with or without the FAK inhibitor PF562271 (10 µM); USP14-depleted cells as control; Protein A/G magnetic beads, 4 °C overnight; immunoblot.
Assay [2] addresses integrin‐linked kinase (human (endogenous in Hep3B)) (UniProt Q13418). Put plainly: co-IP; anti-ILK immunoprecipitates from lysates of Hep3B cells treated with or without NETs; endogenous proteins; IgG isotype control; immunoblot. On the technique in general: A western blot detects proteins with antibodies after separation by electrophoresis.

For MDM2 (from UniProt Q00987 1-491), in assay [1], the binding entry is listed as “binds”.

B1: β‐Parvin (protein, UniProt Q9HBI1 1-364)
chain: MSSAPRSPTPRPRRMKKDESFLGKLGGTLARKRRAREVSDLQEEGKNAINSPMSPALVDVHPEDTQLEENEERTMIDPTSKEDPKFKELVKVLLDWINDVLVEERIIVKQLEEDLYDGQVLQKLLEKLAGCKLNVAEVTQSEIGQKQKLQTVLEAVHDLLRPRGWALRWSVDSIHGKNLVAILHLLVSLAMHFRAPIRLPEHVTVQVVVVRKREGLLHSSHISEELTTTTEMMMGRFERDAFDTLFDHAPDKLSVVKKSLITFVNKHLNKLNLEVTELETQFADGVYLVLLMGLLEDYFVPLHHFYLTPESFDQKVHNVSFAFELMLDGGLKKPKARPEDVVNLDLKSTLRVLYNLFTKYKNVE
As for B1, the binding result in assay [2] is “binds”.
